Reference: patent US20080103095A1
These are yes or no findings as the source states them, for the method shown. Binding seen in cells or lysates may run through a third protein. Some entries that bind do so weakly or less than the wild type.

The chains behind the UniProt entries cited, without tags or fusion partners. Residues count along the entry.
UniProt P14602: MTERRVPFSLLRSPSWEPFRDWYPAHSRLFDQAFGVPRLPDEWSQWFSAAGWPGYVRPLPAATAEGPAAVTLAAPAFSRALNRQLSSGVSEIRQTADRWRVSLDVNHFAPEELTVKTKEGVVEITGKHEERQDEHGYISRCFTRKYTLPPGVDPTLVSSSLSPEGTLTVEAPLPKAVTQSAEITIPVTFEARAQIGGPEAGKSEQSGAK
UniProt P63017, residues 2-646: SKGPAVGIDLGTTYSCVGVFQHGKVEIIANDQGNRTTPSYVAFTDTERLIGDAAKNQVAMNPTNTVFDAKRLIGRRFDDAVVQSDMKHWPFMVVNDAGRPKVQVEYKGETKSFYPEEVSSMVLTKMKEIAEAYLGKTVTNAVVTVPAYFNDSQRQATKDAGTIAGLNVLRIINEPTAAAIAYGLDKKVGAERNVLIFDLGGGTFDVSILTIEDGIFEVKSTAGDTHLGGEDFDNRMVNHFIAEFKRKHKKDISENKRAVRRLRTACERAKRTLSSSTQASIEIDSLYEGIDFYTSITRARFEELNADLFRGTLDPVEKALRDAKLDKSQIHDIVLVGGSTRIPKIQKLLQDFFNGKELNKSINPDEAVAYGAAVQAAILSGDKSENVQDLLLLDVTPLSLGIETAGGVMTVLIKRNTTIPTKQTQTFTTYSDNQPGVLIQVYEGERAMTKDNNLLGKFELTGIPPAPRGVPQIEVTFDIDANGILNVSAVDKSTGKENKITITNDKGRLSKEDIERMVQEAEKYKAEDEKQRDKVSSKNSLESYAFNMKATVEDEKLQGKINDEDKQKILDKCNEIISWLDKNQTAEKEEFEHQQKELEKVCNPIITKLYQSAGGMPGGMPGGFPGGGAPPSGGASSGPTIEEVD
UniProt Q61699, residues 2-858: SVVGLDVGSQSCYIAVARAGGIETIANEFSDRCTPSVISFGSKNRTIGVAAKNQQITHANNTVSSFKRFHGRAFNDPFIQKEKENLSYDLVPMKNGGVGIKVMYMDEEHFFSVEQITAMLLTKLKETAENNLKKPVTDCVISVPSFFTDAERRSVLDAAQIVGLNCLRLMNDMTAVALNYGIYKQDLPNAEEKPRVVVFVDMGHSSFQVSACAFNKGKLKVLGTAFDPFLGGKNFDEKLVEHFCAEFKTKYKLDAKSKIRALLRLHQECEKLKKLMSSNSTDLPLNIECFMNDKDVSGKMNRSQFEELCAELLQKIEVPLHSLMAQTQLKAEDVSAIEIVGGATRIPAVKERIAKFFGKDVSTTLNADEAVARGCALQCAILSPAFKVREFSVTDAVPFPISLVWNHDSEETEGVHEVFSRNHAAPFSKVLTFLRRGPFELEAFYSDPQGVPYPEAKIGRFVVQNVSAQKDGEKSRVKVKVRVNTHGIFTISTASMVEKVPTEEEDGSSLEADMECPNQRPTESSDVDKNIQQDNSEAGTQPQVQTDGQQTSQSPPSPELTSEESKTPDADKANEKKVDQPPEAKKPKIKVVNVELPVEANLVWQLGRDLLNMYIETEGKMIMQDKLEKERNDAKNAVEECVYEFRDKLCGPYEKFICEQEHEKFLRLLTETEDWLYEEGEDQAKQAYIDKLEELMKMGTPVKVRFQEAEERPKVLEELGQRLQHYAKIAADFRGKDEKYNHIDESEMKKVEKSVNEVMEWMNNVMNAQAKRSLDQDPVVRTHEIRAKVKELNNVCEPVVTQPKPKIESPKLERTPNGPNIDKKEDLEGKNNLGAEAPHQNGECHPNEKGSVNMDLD

Assays:
[1] = molecular target: native hsp25 in Colon26 cells (mouse (murine colon 26 tumor)) (UniProt P14602); experiment: co-purification (Con A, Mono Q, size exclusion) from Colon26 cells, immunoblot
[2] = molecular target: native hsc70 in Colon26 cells (mouse (murine colon 26 tumor)) (UniProt P63017); experiment: as above
[3] = molecular target: native hsp25 in Colon26 cells (mouse (murine colon 26 tumor)) (UniProt P14602); experiment: co-purification and co-immunoprecipitation, Colon26 cells
[4] = molecular target: native hsc70 in Colon26 cells (mouse (murine colon 26 tumor)) (UniProt P63017); experiment: as above
[5] = molecular target: native hsp25 in Colon26 cells (mouse (murine colon 26 tumor)) (UniProt P14602); experiment: co-purification and co-immunoprecipitation, native complex
[6] = molecular target: native hsc70 in Colon26 cells (mouse (murine colon 26 tumor)) (UniProt P63017); experiment: as above
[7] = molecular target: native hsp25 in Colon26 cells (mouse (murine colon 26 tumor)) (UniProt P14602); experiment: reciprocal co-immunoprecipitation, Colon26 cell extracts and hsp110 fractions
[8] = molecular target: native hsc70 in Colon26 cells (mouse (murine colon 26 tumor)) (UniProt P63017); experiment: as above

Measured: binding

native hsp110 from murine tumor cells (Colon26 / colon 26, Meth A) and liver (from UniProt Q61699 2-858)
binds: all assays above

native hsc70 in Colon26 cells (from UniProt P63017 2-646)
binds: [7]
